No constants are given. Whether binding was seen depends on the method and setting. In cells and extracts the contact can be indirect. Some results given as binding are weak or reduced against the parent protein; the word gives no strength. Each block holds one molecule with its values, some of them ahead of it.
Biological target: FLAG-OPTN (Optineurin) (UniProt Q96CV9)
Assay: co-IP; anti-FLAG (M2) immunoprecipitation from lysates of Optn+/+ HeLa cells expressing FLAG-OPTN and infected with HSV-1 at 1 MOI, sampled over time of infection; IP buffer 250 mM NaCl, 50 mM Tris, 0.5 mM EDTA, 0.5% NP-40; protein A/G beads, 4 °C overnight; immunoblot

By UniProt entry, the sequences of proteins in these tests, tags left out.
UniProt Q96CV9: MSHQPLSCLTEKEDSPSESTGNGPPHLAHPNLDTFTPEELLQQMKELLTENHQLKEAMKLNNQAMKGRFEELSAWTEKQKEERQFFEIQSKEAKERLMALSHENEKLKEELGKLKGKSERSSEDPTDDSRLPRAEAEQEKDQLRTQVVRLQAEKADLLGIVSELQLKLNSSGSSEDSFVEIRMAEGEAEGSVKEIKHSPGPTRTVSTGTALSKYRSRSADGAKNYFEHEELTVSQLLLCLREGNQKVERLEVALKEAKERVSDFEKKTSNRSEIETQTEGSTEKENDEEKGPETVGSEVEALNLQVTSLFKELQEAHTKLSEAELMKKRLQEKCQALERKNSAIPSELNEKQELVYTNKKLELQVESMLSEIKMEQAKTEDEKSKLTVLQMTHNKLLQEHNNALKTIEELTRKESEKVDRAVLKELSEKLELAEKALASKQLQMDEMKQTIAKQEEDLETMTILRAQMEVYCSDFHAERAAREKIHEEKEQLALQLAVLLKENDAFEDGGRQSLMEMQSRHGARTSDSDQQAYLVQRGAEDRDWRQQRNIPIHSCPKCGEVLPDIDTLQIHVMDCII
UniProt P06492: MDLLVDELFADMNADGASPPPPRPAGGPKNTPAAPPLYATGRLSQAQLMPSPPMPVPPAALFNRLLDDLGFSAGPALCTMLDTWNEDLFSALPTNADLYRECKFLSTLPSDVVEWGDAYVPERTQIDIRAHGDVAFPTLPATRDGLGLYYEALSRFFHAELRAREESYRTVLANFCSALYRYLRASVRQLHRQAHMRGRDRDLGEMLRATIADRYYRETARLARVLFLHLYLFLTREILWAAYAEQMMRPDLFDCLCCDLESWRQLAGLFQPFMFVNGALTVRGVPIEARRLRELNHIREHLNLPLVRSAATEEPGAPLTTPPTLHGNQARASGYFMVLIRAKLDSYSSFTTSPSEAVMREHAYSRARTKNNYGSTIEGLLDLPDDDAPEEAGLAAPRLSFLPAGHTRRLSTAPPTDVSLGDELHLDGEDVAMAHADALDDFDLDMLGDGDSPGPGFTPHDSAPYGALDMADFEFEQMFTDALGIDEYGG

Molecule: HSV-1 tegument protein VP16 (from UniProt P06492 1-490)
binding: binds

binding: binds
B1: TANK binding kinase 1 (TBK1) (enzyme, UniProt Q9UHD2 1-729)
chain: MQSTSNHLWLLSDILGQGATANVFRGRHKKTGDLFAIKVFNNISFLRPVDVQMREFEVLKKLNHKNIVKLFAIEEETTTRHKVLIMEFCPCGSLYTVLEEPSNAYGLPESEFLIVLRDVVGGMNHLRENGIVHRDIKPGNIMRVIGEDGQSVYKLTDFGAARELEDDEQFVSLYGTEEYLHPDMYERAVLRKDHQKKYGATVDLWSIGVTFYHAATGSLPFRPFEGPRRNKEVMYKIITGKPSGAISGVQKAENGPIDWSGDMPVSCSLSRGLQVLLTPVLANILEADQEKCWGFDQFFAETSDILHRMVIHVFSLQQMTAHKIYIHSYNTATIFHELVYKQTKIISSNQELIYEGRRLVLEPGRLAQHFPKTTEENPIFVVSREPLNTIGLIYEKISLPKVHPRYDLDGDASMAKAITGVVCYACRIASTLLLYQELMRKGIRWLIELIKDDYNETVHKKTEVVITLDFCIRNIEKTVKVYEKLMKINLEAAELGEISDIHTKLLRLSSSQGTIETSLQDIDSRLSPGGSLADAWAHQEGTHPKDRNVEKLQVLLNCMTEIYYQFKKDKAERRLAYNEEQIHKFDKQKLYYHATKAMTHFTDECVKKYEAFLNKSEEWIRKMLHLRKQLLSLTNQCFDIEEEVSKYQEYTNELQETLPQKMFTASSGIKHTMTPIYPSSNTLVEMTLGMKKLKEEMEGVVKELAENNHILERFGSLTMDGGLRNVDCL

Source: PMC8437952
